Test results as given in PMC9551088.
No constants are given. Whether binding was seen depends on the method and setting. Binding seen in cells or lysates may run through a third protein. Some binding calls cover weakened binding; strength is not graded here.

Protein sequences, listed by entry. Tags and fused reporters are not part of them.
UniProt Q8C6L5: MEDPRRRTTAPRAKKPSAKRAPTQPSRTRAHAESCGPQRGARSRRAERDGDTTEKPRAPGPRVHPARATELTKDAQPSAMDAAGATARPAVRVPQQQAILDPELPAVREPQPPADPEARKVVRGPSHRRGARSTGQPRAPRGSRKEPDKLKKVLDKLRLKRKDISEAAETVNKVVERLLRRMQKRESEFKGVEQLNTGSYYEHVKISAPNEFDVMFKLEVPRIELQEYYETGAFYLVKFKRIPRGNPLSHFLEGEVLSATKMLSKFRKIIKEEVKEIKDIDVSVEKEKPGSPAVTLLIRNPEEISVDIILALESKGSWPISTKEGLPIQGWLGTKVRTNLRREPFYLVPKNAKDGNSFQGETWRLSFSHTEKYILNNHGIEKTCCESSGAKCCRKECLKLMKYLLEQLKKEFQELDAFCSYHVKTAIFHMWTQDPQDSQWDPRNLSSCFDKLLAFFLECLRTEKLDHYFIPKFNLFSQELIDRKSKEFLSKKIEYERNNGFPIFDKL
UniProt Q9Y4X5: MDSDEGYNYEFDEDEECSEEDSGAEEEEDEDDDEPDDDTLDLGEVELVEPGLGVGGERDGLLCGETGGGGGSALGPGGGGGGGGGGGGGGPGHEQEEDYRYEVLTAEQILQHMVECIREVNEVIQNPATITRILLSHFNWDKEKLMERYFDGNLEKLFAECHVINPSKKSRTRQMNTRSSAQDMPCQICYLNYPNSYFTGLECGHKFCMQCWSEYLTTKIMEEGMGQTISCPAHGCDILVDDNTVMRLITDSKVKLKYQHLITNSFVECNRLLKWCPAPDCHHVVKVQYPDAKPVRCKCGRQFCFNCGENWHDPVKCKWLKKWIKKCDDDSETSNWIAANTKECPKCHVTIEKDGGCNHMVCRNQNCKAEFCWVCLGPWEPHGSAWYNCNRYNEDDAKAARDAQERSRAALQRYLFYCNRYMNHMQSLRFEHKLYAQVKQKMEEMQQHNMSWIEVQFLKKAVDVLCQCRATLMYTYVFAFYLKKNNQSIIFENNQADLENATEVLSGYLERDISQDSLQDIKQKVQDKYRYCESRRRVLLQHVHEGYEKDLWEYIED
UniProt Q9Z1K5: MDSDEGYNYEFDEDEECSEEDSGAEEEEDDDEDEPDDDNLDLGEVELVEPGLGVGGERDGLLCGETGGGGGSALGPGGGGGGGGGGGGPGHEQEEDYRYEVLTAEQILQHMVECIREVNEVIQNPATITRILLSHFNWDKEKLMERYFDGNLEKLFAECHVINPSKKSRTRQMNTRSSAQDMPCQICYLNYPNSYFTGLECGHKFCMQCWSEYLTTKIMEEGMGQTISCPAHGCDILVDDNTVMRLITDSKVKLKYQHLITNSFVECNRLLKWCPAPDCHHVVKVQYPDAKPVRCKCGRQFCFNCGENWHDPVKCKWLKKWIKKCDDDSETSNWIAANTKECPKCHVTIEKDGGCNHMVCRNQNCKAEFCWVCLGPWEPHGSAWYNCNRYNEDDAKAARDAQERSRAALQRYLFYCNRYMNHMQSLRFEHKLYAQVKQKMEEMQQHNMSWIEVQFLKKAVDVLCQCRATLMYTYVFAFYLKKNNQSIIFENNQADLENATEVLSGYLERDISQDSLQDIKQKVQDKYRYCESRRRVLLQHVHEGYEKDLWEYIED
UniProt Q86WV6: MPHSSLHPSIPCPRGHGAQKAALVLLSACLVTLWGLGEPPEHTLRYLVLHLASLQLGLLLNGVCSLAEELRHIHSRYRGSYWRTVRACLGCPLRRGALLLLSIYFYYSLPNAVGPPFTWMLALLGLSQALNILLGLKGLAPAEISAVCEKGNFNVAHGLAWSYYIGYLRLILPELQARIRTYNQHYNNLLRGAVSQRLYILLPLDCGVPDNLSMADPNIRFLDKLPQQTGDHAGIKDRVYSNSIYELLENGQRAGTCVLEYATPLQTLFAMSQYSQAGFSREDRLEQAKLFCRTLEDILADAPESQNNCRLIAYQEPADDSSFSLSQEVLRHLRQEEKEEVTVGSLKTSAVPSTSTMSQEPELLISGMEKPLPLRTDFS
UniProt Q7Z434: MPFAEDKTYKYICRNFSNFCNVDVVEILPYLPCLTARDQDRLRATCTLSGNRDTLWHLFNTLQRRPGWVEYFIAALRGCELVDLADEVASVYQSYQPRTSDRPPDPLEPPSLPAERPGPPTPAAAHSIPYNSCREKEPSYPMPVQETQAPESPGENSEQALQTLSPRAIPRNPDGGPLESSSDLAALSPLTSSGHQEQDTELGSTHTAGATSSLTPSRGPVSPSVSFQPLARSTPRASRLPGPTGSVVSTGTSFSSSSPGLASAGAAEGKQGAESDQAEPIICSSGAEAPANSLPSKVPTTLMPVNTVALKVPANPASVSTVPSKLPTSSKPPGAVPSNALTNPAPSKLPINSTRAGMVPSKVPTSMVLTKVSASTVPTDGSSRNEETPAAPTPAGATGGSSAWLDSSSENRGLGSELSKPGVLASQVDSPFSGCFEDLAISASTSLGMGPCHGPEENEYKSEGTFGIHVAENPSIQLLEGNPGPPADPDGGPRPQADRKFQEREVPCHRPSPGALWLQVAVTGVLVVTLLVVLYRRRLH

Tests used:
[1] = target: cGAS (endogenous, murine MLFs and BMDCs) (mouse (endogenous in MLFs and BMDCs)) (UniProt Q8C6L5); test: co-IP
[2] = target: FLAG-ARIH1 (human) (UniProt Q9Y4X5); test: co-IP; HEK293 cells transfected for 24 h with FLAG- and HA-tagged plasmids; Nonidet P-40 lysis buffer (20 mM Tris-HCl pH 7.4-7.5, 150 mM NaCl, 1 mM EDTA, 1% NP-40); IP with anti-FLAG, blot with anti-HA
[3] = target: FLAG-ARIH1 (human) (UniProt Q9Y4X5); test: co-IP

**Q.** How did the binding [1] turn out when “ARIH1 (endogenous, murine MLFs and BMDCs) (from UniProt Q9Z1K5 1-555)” was run?
**A.** Its binding is “binds”.

**Q.** With HA-MITA (from UniProt Q86WV6 1-379) as the substance, how does the binding [2] read?
**A.** The binding was “no binding”.

**Q.** HA-MAVS (from UniProt Q7Z434 1-540) was tested. Which binding [3] did it give?
**A.** The binding was “no binding”.
